# ± gives the standard deviation. Only a part is listed here, and it is no random draw. The uncertainty is large for many entries.
# Tested on: EfPiwi piRISC loaded with piRNA #1 (26 nt)
# Assay: pre-steady-state target cleavage rate (min^-1); guide: piRNA #1 5'p-UGAGGUAGUAGGUUGUAUAGUAUCCA; MIWI and MILI are mouse PIWI proteins and EfPiwi is from a freshwater sponge; tags in brackets are library labels; higher = faster piRNA-guided slicing of the target
# Details: auxiliary factor: 500 nM Ephydatia muelleri Gtsf1
# Procedure, shortened: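 Sequencing of uncleaved targets, normalised to depth and to weakly complementary targets, was the readout of this Cleave-'n-Seq assay. A transcribed, DNA-blocked target RNA library (0.1 nM) was mixed with 1 nM active affinity-purified piRISC carrying one synthetic guide, with or without 500 nM GTSF1 partner protein, in HEPES–potassium acetate buffer at 33 °C for 0–8 or 0–960 min. Three trials were pooled, k3 was capped at 0.0001 min^-1, and a burst-and-steady-state fit gave the pre-steady-state cleavage rate.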
row,Sequence,pre-steady-state target cleavage rate
1,GGAGACCUAUGAUAUCAAGCCUACUACCUCA,0.000637 ± 0.0088
2,GGAGACCUAUGAUAUGUUCCUACGACCUCA,0.000103 ± 0.023
3,GGAGAGGAUUCUAUACAACCUUCUACCUCA,0.00275 ± 0.0034
4,GGAGACCAUACUAUACAACCUACUAGCUCA,0.00491 ± 0.0023
5,GGAGACCUAUGAUAACAACCUACUAGGUCA,0.000128 ± 0.014
6,GGAGACCUGACUAUACAACCUACUACCUCA,0.0243 ± 0.01
7,GGAGACGAUACUAAACAACCUAGUACCUCA,0.00281 ± 0.0023
8,GGAGACCAUACUUAUCAACCUACUACCUCA,0.00305 ± 0.0037
9,GGAGAGGAUACUAUACAACCUAGCUACCUCA,0.0038 ± 0.0017
10,GGAGAGGAUACUAUUCAACGUACUACCUCA,0.00415 ± 0.0012
11,GGAGAGGAUAGUAUACAACCUACAACCUCA,0.00249 ± 0.0021
12,GGAGACCAUUCUAUACAACCUUCUACCUCA,0.00336 ± 0.0032
13,GGAGACCAUACUAUACAACCUACUUGGUCA,0.00392 ± 0.0029
14,GGAGACCUAUCUUUACAACCUACUACCUGA,0.00263 ± 0.004
15,GGAGACCUAUGUAUACAACCUACUACCUACA,0.000875 ± 0.01
16,GGAGACCUAUGAAUACAACCUCCUACCUCA,0.00117 ± 0.0041
17,GGAGUGGAUACUAUACAACGUUCUACCUCA,0.00461 ± 0.0022
18,GGAGACGAUACUUUAGAACCUACUACCUCA,0.00161 ± 0.0029
19,GGAGAGGAUACUAUACAACAUACUACCUCA,0.0063 ± 0.0023
20,GGAGUGGAUACUAUUCUACCUACUACCUCA,0.00571 ± 0.0035

row,Sequence,pre-steady-state target cleavage rate
1,GGAGACCAUUACUAUACAACCUACUACCUCA,0.148 ± 0.044
2,GGAGACCUAUGUAUACAACCUCACUACCUCA,0.000343 ± 0.019
3,GGAGACCAUUCUAUACAACCUACAACCUCA,0.00312 ± 0.0031
4,GGAGUGGAUACUUUACAACCUACUACCUGA,0.00122 ± 0.0021
5,GGAGACCUAUGAUAACAACGUAGUACCUCA,0.000164 ± 0.018
6,GGAGACCUAUGAUAUGUACGUACUACCUGA,0.000178 ± 0.013
7,GGAGACCUAACUAUACAACCUACUACCUUCA,0.0285 ± 0.011
8,GGAGACCUUACUAUACAUGCUACUACCUCA,0.00213 ± 0.004
9,GGAGACCACACUAUACAACCUACUACCUCA,0.0344 ± 0.015
10,GGAGACCUAUCUAUACAAGCAACUACCUCA,0.0018 ± 0.005
11,GGAGUGGAUACUAUAGAACCAACUACCUCA,0.00159 ± 0.0019
12,GGAGACCUUUCUAUACAACGUACUACCUCA,0.00139 ± 0.0023
13,GGAGACCUAUGAUAUGUUCCUACUAUCUCA,0.000209 ± 0.011
14,GGAGACCUAUGAUAUGUUGCUACUGCCUCA,0.000776 ± 0.0066
15,GGAGUGGAUACUAUACUACCUACUAGCUCA,0.0027 ± 0.0021
16,GGAGACCUAACUAUACAACCUACUUGCUCA,0.00145 ± 0.0054
17,GGAGAGGAUACUAUACCACCUACUACCUCA,0.00648 ± 0.003
18,GGAGACCUUACUAUAGAACCUACUACCUCA,0.00324 ± 0.0026
19,GGAGACCUAACUUUACAACCUACUAGCUCA,0.00152 ± 0.0074
20,GGAGACCUAUCUAUACAACCUACUACCUGCA,0.00393 ± 0.0041

# — the supplement of paper PMC10338343
